Record: PubChem BioAssay AID1224830 (NIAID, 2016)

- Purpose: 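Regulators of TLR4 signalling towards TNF-alpha in macrophage-like cells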 (primary screen)
- System: human THP-1 monocytic leukaemia cells, TNF dual-luciferase reporter clone, PMA-differentiated to macrophage-like cells
- Reagent: siRNA pool against human genes, 50 nM
- Duration: LPS for 4 h, given about 3 days after siRNA transfection
- Challenge: bacterial LPS (TLR4 ligand), 10 ng/ml
- Measured: 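TNF firefly reporter luminescence divided by renilla, normalised to the plate median, then turned into a robust z-score for each replicate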
- Scale: TNF reporter robust z-score: higher = stronger TNF reporter response to LPS
- Rule for the call: 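Each well counts as active if its z-score is over 2.8 or under -1.5; controls are left without a call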
Shown is an unselected part of about 18,000 deposited reagents. About 2,900 of them (16%) count as active. 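Calls are made per well; low scores hint the gene aids the LPS response, high scores that it dampens it.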 A number with no mark means an inactive call. Repeated entries: four replicate wells of each siRNA pool.

no.	gene knocked down	TNF reporter robust z-score
1	NFATC2 (nuclear factor of activated T cells 2)	0.12
2	NFATC2 (nuclear factor of activated T cells 2)	0.35
3	NFATC2 (nuclear factor of activated T cells 2)	0.81
4	NFATC2 (nuclear factor of activated T cells 2)	1.22
5	ST7L (suppression of tumorigenicity 7 like)	0.03
6	ST7L (suppression of tumorigenicity 7 like)	1.03
7	ST7L (suppression of tumorigenicity 7 like)	0.24
8	ST7L (suppression of tumorigenicity 7 like)	1.01
9	CEBPG (CCAAT enhancer binding protein gamma)	-0.94
10	CEBPG (CCAAT enhancer binding protein gamma)	0.05
11	CEBPG (CCAAT enhancer binding protein gamma)	-0.5
12	CEBPG (CCAAT enhancer binding protein gamma)	-0.49
13	CCL11 (C-C motif chemokine ligand 11)	-0.1
14	CCL11 (C-C motif chemokine ligand 11)	0.15
15	CCL11 (C-C motif chemokine ligand 11)	-1.04
16	CCL11 (C-C motif chemokine ligand 11)	-0.56
17	CGB5 (chorionic gonadotropin subunit beta 5)	1.29
18	CGB5 (chorionic gonadotropin subunit beta 5)	0.89
19	CGB5 (chorionic gonadotropin subunit beta 5)	0.44
20	CGB5 (chorionic gonadotropin subunit beta 5)	0.29
21	CPO (carboxypeptidase O)	0.94
22	CPO (carboxypeptidase O)	-0.24
23	CPO (carboxypeptidase O)	-0.73
24	CPO (carboxypeptidase O)	0.07
25	ENPP2 (ectonucleotide pyrophosphatase/phosphodiesterase 2)	-0.72
26	ENPP2 (ectonucleotide pyrophosphatase/phosphodiesterase 2)	-0.32
27	ENPP2 (ectonucleotide pyrophosphatase/phosphodiesterase 2)	0.25
28	ENPP2 (ectonucleotide pyrophosphatase/phosphodiesterase 2)	0.74
29	SACK1H (scaffolding CK1 anchoring protein H)	0.61
30	SACK1H (scaffolding CK1 anchoring protein H)	-0.16
31	SACK1H (scaffolding CK1 anchoring protein H)	0.44
32	SACK1H (scaffolding CK1 anchoring protein H)	0.48
33	SPRTN (SprT-like N-terminal domain)	-0.84
34	SPRTN (SprT-like N-terminal domain)	-0.59
35	SPRTN (SprT-like N-terminal domain)	-0.19
36	SPRTN (SprT-like N-terminal domain)	-0.3
37	NAMPT (nicotinamide phosphoribosyltransferase)	-1.59 (active)
38	NAMPT (nicotinamide phosphoribosyltransferase)	-1.42
39	NAMPT (nicotinamide phosphoribosyltransferase)	-1.44
40	NAMPT (nicotinamide phosphoribosyltransferase)	-1.1
41	ZFAND2B (zinc finger AN1-type containing 2B)	1.18
42	ZFAND2B (zinc finger AN1-type containing 2B)	5.14 (active)
43	ZFAND2B (zinc finger AN1-type containing 2B)	2.33
44	ZFAND2B (zinc finger AN1-type containing 2B)	0.91
45	RTF2 (replication termination factor 2)	1.05
46	RTF2 (replication termination factor 2)	2.08
47	RTF2 (replication termination factor 2)	1.4
48	RTF2 (replication termination factor 2)	2.14
49	MAGEA6 (MAGE family member A6)	0.32
50	MAGEA6 (MAGE family member A6)	0.21
51	MAGEA6 (MAGE family member A6)	0.34
52	MAGEA6 (MAGE family member A6)	1.65
53	ICA1L (islet cell autoantigen 1 like)	-0.56
54	ICA1L (islet cell autoantigen 1 like)	0.13
55	ICA1L (islet cell autoantigen 1 like)	-0.99
56	ICA1L (islet cell autoantigen 1 like)	-0.64
57	TGFB2 (transforming growth factor beta 2)	-1.15
58	TGFB2 (transforming growth factor beta 2)	-0.98
59	TGFB2 (transforming growth factor beta 2)	-0.83
60	TGFB2 (transforming growth factor beta 2)	1.44
61	ISG15 (ISG15 ubiquitin like modifier)	-0.71
62	ISG15 (ISG15 ubiquitin like modifier)	-0.8
63	ISG15 (ISG15 ubiquitin like modifier)	-0.94
64	ISG15 (ISG15 ubiquitin like modifier)	-0.95
65	SLFN11 (schlafen family member 11)	0.59
66	SLFN11 (schlafen family member 11)	0.27
67	SLFN11 (schlafen family member 11)	0.66
68	SLFN11 (schlafen family member 11)	1.22
69	EXOC6 (exocyst complex component 6)	-0.3
70	EXOC6 (exocyst complex component 6)	1.03
71	EXOC6 (exocyst complex component 6)	-1.1
72	EXOC6 (exocyst complex component 6)	1.2
73	SLC17A1	-1
74	SLC17A1	-0.12
75	SLC17A1	-0.65
76	SLC17A1	-1.09

13 entries from above, ordered by “TNF reporter robust z-score”, ascending:
gene knocked down	TNF reporter robust z-score
SPRTN (SprT-like N-terminal domain)	-0.84
CPO (carboxypeptidase O)	-0.73
ENPP2 (ectonucleotide pyrophosphatase/phosphodiesterase 2)	-0.72
SPRTN (SprT-like N-terminal domain)	-0.59
ENPP2 (ectonucleotide pyrophosphatase/phosphodiesterase 2)	-0.32
SPRTN (SprT-like N-terminal domain)	-0.19
SACK1H (scaffolding CK1 anchoring protein H)	-0.16
CPO (carboxypeptidase O)	0.07
ENPP2 (ectonucleotide pyrophosphatase/phosphodiesterase 2)	0.25
SACK1H (scaffolding CK1 anchoring protein H)	0.44
SACK1H (scaffolding CK1 anchoring protein H)	0.48
SACK1H (scaffolding CK1 anchoring protein H)	0.61
ENPP2 (ectonucleotide pyrophosphatase/phosphodiesterase 2)	0.74
